From a melanoma drug combination screen (doi:10.1371/journal.pone.0140310); values rounded.

Drug key:
bexarotene, 2 µM: C=C(c1ccc(C(=O)O)cc1)c1cc2c(cc1C)C(C)(C)CCC2(C)C
vincristine, 0.0001 µM: CC[C@]1(O)C[C@H]2CN(CCc3c([nH]c4ccccc34)[C@@](C(=O)OC)(c3cc4c(cc3OC)N(C=O)[C@H]3[C@@](O)(C(=O)OC)[C@H](OC(C)=O)[C@]5(CC)C=CCN6CC[C@]43[C@@H]65)C2)C1
cisplatin, 1.6 µM: N.N.[Cl][Pt][Cl]
indole-3-carbinol, 0.8 µM: OCc1c[nH]c2ccccc12
dasatinib, 0.004 µM: Cc1nc(Nc2ncc(C(=O)Nc3c(C)cccc3Cl)s2)cc(N2CCN(CCO)CC2)n1
gemcitabine, 0.0004 µM: Nc1ccn([C@@H]2O[C@H](CO)[C@@H](O)C2(F)F)c(=O)n1
decitabine, 0.1 µM: Nc1ncn([C@H]2C[C@H](O)[C@@H](CO)O2)c(=O)n1
PLX4720, 0.08 µM: CCCS(=O)(=O)Nc1ccc(F)c(C(=O)c2c[nH]c3ncc(Cl)cc23)c1F
dovitinib, 0.1 µM: CN1CCN(c2ccc3nc(-c4c(N)c5c(F)cccc5[nH]c4=O)[nH]c3c2)CC1
CHIR-265, 0.08 µM: Cn1c(Nc2ccc(C(F)(F)F)cc2)nc2cc(Oc3ccnc(-c4ncc(C(F)(F)F)[nH]4)c3)ccc21
fludarabine, 0.2 µM: Nc1nc(F)nc2c1ncn2[C@@H]1O[C@H](CO)[C@@H](O)[C@@H]1O

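Human melanoma cells were exposed to two drugs together for 72 h in 1,536-well plates and read by automated microscopy after fixing and staining. The read-out is cell count (nuclei) in % of the DMSO control; lower values mean stronger growth inhibition or killing. Concentrations were fixed for each drug; these are the lower of two levels, a fifth of the higher. No replicate spread is given; individual values may be noisy.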 This is part of the screen, not chosen by result. A dash means that no value is listed here.

Drugs	COLO 792	IST-MEL1	LB2518-MEL	COLO 800	MEL-HO	C32	A375	COLO 829	A101D	LOX IMVI	A2058	G-361	IPC-298
cisplatin and vincristine	122	97.0	95.7	105	91.6	102	106	69.2	86.5	115	90.3	95.0	101
fludarabine and dasatinib	55.2	90.1	90.3	71.6	89.1	84.0	10.3	55.8	87.1	139	77.8	96.4	90.2
CHIR-265 and bexarotene	69.2	86.8	77.8	97.7	85.4	92.9	88.2	91.9	68.8	106	106	80.1	70.6
PLX4720 and indole-3-carbinol	99.8	94.3	-	68.6	96.8	77.5	81.2	96.5	106	85.7	97.5	93.2	102
CHIR-265 and gemcitabine	60.6	53.8	64.8	57.3	69.2	93.6	84.6	91.6	65.4	83.4	86.4	72.3	51.7
decitabine and PLX4720	102	88.7	98.7	102	83.9	101	74.2	102	93.5	76.4	90.0	69.5	62.2
PLX4720 and gemcitabine	110	68.2	96.9	73.9	86.8	90.6	82.2	134	90.7	105	87.6	92.4	79.2
CHIR-265 and vincristine	62.8	88.2	67.9	92.0	75.2	62.5	35.9	64.3	48.5	63.2	10.7	83.3	60.5
bexarotene and cisplatin	107	109	100	94.0	88.8	99.9	82.3	70.9	92.7	136	91.5	93.9	94.6
fludarabine and bexarotene	86.4	94.5	98.7	98.5	97.4	101	25.6	85.2	90.9	111	110	84.6	87.3
dasatinib and gemcitabine	66.5	55.0	85.4	66.9	69.7	85.6	77.5	76.2	88.5	65.3	89.2	65.9	88.1
vincristine and decitabine	102	88.2	82.8	86.1	90.2	89.6	79.0	93.9	64.0	127	57.3	62.7	67.2
decitabine and dasatinib	70.6	80.7	82.4	65.4	75.3	80.1	98.9	65.0	83.9	75.4	84.6	81.0	59.4
cisplatin and dovitinib	103	99.8	113	126	102	95.8	100	110	98.8	76.6	116	102	93.7
fludarabine and dovitinib	97.5	99.7	99.4	69.4	96.4	113	22.8	111	104	149	81.5	89.1	97.4
PLX4720 and dovitinib	93.3	102	93.9	76.3	83.7	76.5	67.4	96.6	87.7	63.0	94.8	95.6	85.9
dovitinib and CHIR-265	46.7	96.8	50.6	94.8	75.1	70.6	73.8	93.9	54.2	131	83.9	58.4	75.5
decitabine and cisplatin	76.7	91.0	87.0	60.3	85.2	89.1	91.8	66.2	86.9	71.9	79.6	94.5	71.5
CHIR-265 and PLX4720	61.0	86.5	70.9	134	77.7	85.5	58.8	92.9	60.8	76.5	103	71.7	63.7
bexarotene and gemcitabine	103	75.4	93.3	108	73.5	96.5	90.2	78.9	111	116	87.6	92.3	90.9
dovitinib and gemcitabine	101	77.5	-	54.9	98.2	88.0	107	74.2	95.5	127	89.6	97.3	90.8
indole-3-carbinol and decitabine	79.9	83.6	105	91.3	94.2	109	90.7	74.3	95.2	89.0	82.5	83.5	68.3
vincristine and fludarabine	95.7	79.3	108	147	99.3	66.1	10.9	56.3	76.6	119	29.1	81.5	94.7
indole-3-carbinol and gemcitabine	85.8	64.7	85.7	74.2	74.2	93.5	80.8	84.3	87.6	75.2	96.2	89.2	84.5
cisplatin and PLX4720	96.9	98.6	107	77.2	93.5	84.2	104	103	105	84.7	98.0	98.9	93.7
indole-3-carbinol and vincristine	96.4	85.9	79.6	79.1	98.8	79.3	45.2	82.8	58.7	73.6	17.7	94.2	93.8
fludarabine and indole-3-carbinol	90.3	96.9	86.8	80.0	87.2	103	17.1	121	86.5	88.8	88.4	93.8	87.4
vincristine and gemcitabine	88.8	80.0	95.7	89.7	88.2	111	75.9	92.7	68.9	82.2	42.1	95.1	94.2
cisplatin and indole-3-carbinol	97.8	93.1	95.7	103	97.7	103	95.2	106	103	127	92.0	97.5	102
bexarotene and decitabine	64.4	65.3	-	92.6	95.8	108	98.2	72.4	93.1	114	85.8	75.3	74.7
PLX4720 and vincristine	103	104	94.6	78.9	90.8	78.7	62.9	108	85.2	85.1	28.0	119	92.1
dasatinib and CHIR-265	31.7	75.2	81.1	89.4	61.6	109	59.5	84.8	52.7	50.0	79.1	76.5	90.9
indole-3-carbinol and bexarotene	95.5	88.2	99.4	130	97.5	116	108	77.4	94.1	104	88.3	80.7	104
cisplatin and dasatinib	75.5	96.6	87.1	89.5	85.1	92.4	84.1	94.6	84.0	56.1	91.2	86.7	99.0
fludarabine and cisplatin	92.4	98.0	73.7	113	96.0	112	15.7	116	89.5	96.6	70.4	101	98.7
cisplatin and CHIR-265	101	104	100	126	101	104	109	85.5	97.9	73.3	85.4	93.0	95.5
dasatinib and bexarotene	68.4	92.9	117	107	79.1	95.3	104	74.2	104	72.6	89.7	82.7	103
dovitinib and vincristine	110	105	104	83.4	92.6	85.4	83.7	79.3	72.2	69.7	44.3	99.8	97.8

The first 2 entries again:

Drugs	COLO 792	IST-MEL1	LB2518-MEL	COLO 800	MEL-HO	C32	A375	COLO 829	A101D	LOX IMVI	A2058	G-361	IPC-298
cisplatin and vincristine	122	97.0	95.7	105	91.6	102	106	69.2	86.5	115	90.3	95.0	101
fludarabine and dasatinib	55.2	90.1	90.3	71.6	89.1	84.0	10.3	55.8	87.1	139	77.8	96.4	90.2